Experimental data from article PMC7819943, “Rice protein-binding microarrays: a tool to detect cis-acting elements near promoter regions in rice”.
The other results are listed elsewhere or left out.

Sequences of proteins named here, by UniProt entry; tags and fusion partners are left off.
UniProt Q0JBA9, entry or part of it: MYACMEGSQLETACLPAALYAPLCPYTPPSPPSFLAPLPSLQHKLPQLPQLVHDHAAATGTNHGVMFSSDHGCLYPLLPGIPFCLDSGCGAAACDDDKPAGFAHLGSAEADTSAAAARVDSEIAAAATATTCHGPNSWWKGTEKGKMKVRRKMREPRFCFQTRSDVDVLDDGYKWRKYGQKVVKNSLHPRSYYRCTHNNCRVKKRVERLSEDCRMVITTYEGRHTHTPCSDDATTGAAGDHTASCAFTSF

What follows are sequences tested against OsWRKY34 (Oryza sativa, UniProt Q0JBA9 1-250) (assay: protein-binding microarray (RPBM); PBS, 2% BSA, 51.3 ng/ul salmon testes DNA, 50 uM zinc acetate, 200 nM TF, 25 C, 1 h; high values mean tight binding). Details: protein: recombinant; tags: N-terminal polyhistidine and DsRed monomer fusion (pET32a); label: CyDye5-dUTP incorporated in the synthesized complementary strand; 3' TTTTT single-stranded linker to array surface; dsDNA, one strand shown.
In short: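 In PBS with 2% BSA, salmon testes DNA and 50 µM zinc acetate, 200 nM protein was incubated on a custom Agilent array at 25 °C for 1 h and then washed off. The array had been made double-stranded by primer extension with Cy5-dUTP and blocked with 2% BSA. The proteins were transcription factors fused N-terminally to polyhistidine and DsRed, expressed in E. coli BL21-CodonPlus and purified on Ni–NTA. The binding signal is per-feature fluorescence intensity (arbitrary units) from an Axon 4000B scanner.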

Sequence | binding signal
TGCTCATCACCATCTCCTTCACCTTCTCTTTCCCCACACTCGGAGTCACCTAGTGCAG | 12500 fluorescence intensity (a.u.)
CTCACGCGCTCTCCCCTGCCCAACCACCACGCAAACAAACCGGAGTCACCTAGTGCAG | 9550 fluorescence intensity (a.u.)
TTCTCGTCGGGCTCAAGGTCAATTACTGCTGCTCATTTTTCGGAGTCACCTAGTGCAG | 12300 fluorescence intensity (a.u.)
ACTTTTCCATCACATCGTTTCAATTTCAACCAAACTTCCACGGAGTCACCTAGTGCAG | 9010 fluorescence intensity (a.u.)
TTCGTTGGTTTCATAATGTGTCTATCGATGTTATAGTATGCGGAGTCACCTAGTGCAG | 8340 fluorescence intensity (a.u.)
GGGGAGTTGCGGGAGGGAGGCATAGGGGACGCCGGCGAGGCGGAGTCACCTAGTGCAG | 9650 fluorescence intensity (a.u.)
AGGAGGAGGAGGAGGCGGTGGCGGTGTTGCTGTCCGGTGACGGAGTCACCTAGTGCAG | 10200 fluorescence intensity (a.u.)
CAATCAGCCGCCGAATCTGCATACAACCTCCGTTTTTGACCGGAGTCACCTAGTGCAG | 8260 fluorescence intensity (a.u.)
TGGGTAGCCGGCGCTTATTTAGTCGCTTGCTCTCGTTCTCCGGAGTCACCTAGTGCAG | 9340 fluorescence intensity (a.u.)
TCACATGGAATCATACCGATTTAGCTCTTGTATACATTTGCGGAGTCACCTAGTGCAG | 9340 fluorescence intensity (a.u.)
GTTAGCAGGAGTTAGGTAAATCATTTTCAGACCATAATATCGGAGTCACCTAGTGCAG | 9090 fluorescence intensity (a.u.)
AAGCATTGTTTCATCGTCGTTTCAACAGATTGATTGTTCTCGGAGTCACCTAGTGCAG | 11000 fluorescence intensity (a.u.)
TGTTGTTCATGAACACTTTGTACTCTTCAGTCTCTTTTCGCGGAGTCACCTAGTGCAG | 10500 fluorescence intensity (a.u.)
TTTTTCCCACCTACGTAAGCTGCCTAGCCCATTTGCAAGTCGGAGTCACCTAGTGCAG | 8440 fluorescence intensity (a.u.)
ACCTATTATACACACATAACTTTTCAGCCACATCATCTTTCGGAGTCACCTAGTGCAG | 8790 fluorescence intensity (a.u.)
TATGTGACGCTCCACGCCGACACACATTTGCATTTGGCTCCGGAGTCACCTAGTGCAG | 8070 fluorescence intensity (a.u.)
ATGCACACACAATCCATATCCATATCCATAAATCTTATAGCGGAGTCACCTAGTGCAG | 8530 fluorescence intensity (a.u.)
ATTTACTGGTTTTTCACCGGATTTCACGAAATTCCGAATTCGGAGTCACCTAGTGCAG | 9230 fluorescence intensity (a.u.)
GTCCCACCTATTATACACACTGTATTCTAAAGTTCGTGTTCGGAGTCACCTAGTGCAG | 8740 fluorescence intensity (a.u.)
TGACATCTCTAGACTTCCCACACGGTTTCCACACTATTTTCGGAGTCACCTAGTGCAG | 10100 fluorescence intensity (a.u.)
GCCTCTCCATCTCTCGAGCCATCGCCGACGTCGTCAAGAACGGAGTCACCTAGTGCAG | 10300 fluorescence intensity (a.u.)

Not a retest: an excerpt of the list.
Sequence | binding signal
TATGTGACGCTCCACGCCGACACACATTTGCATTTGGCTCCGGAGTCACCTAGTGCAG | 8070 fluorescence intensity (a.u.)
ATGCACACACAATCCATATCCATATCCATAAATCTTATAGCGGAGTCACCTAGTGCAG | 8530 fluorescence intensity (a.u.)

(list continues)

Sequence | binding signal
TTTCTATGGGGAGGTGGGGAGGTAGGTGAGTGAAGTGCGGCGGAGTCACCTAGTGCAG | 10100 fluorescence intensity (a.u.)
CGTGACCATGACGCATCCTCTGCTTTCAACCTTTGTTCTTCGGAGTCACCTAGTGCAG | 8570 fluorescence intensity (a.u.)
CATGCCTAGTGTGAGTAGCATTTACGGTTTGGGGAATTGACGGAGTCACCTAGTGCAG | 8120 fluorescence intensity (a.u.)
CATTCACTAGTGGTTTGCTTCCAGTTCCTATCCAATCTCTCGGAGTCACCTAGTGCAG | 9590 fluorescence intensity (a.u.)
GATTCAATTTTTCCTTCCGCGCTCATCATAAATAGCAGCACGGAGTCACCTAGTGCAG | 8860 fluorescence intensity (a.u.)
CGGTGTCGCTCACCGATCAGTGTTGGCCGTGCTGTCGACGCGGAGTCACCTAGTGCAG | 8750 fluorescence intensity (a.u.)
GCATTCCATCTGTAGGTTATTTAGCACCCACCCAAGTTTTCGGAGTCACCTAGTGCAG | 10000 fluorescence intensity (a.u.)
TCAAACGACCATTTTCCTGTATTTTGCAATCCTCTATTTTCGGAGTCACCTAGTGCAG | 13600 fluorescence intensity (a.u.)
CTCCCGCACCCCTACCACCACCGTTCGTGTACGTGTCACCCGGAGTCACCTAGTGCAG | 9260 fluorescence intensity (a.u.)
ATCATACTACCTGTCTTCTATCAGCCGCTCTTGTTAGGGTCGGAGTCACCTAGTGCAG | 10200 fluorescence intensity (a.u.)
TGTCTGATCCCGTGTGCAGGGCCTGCGAGGCAATAACCTCCGGAGTCACCTAGTGCAG | 8160 fluorescence intensity (a.u.)
GTTATATGTTACATGGAATAATTTTGTGTTGATGTTTTTACGGAGTCACCTAGTGCAG | 8430 fluorescence intensity (a.u.)
TCGTCTCGCGGTTTACTAATGGATTCTGTAATTAGTTTTTCGGAGTCACCTAGTGCAG | 9240 fluorescence intensity (a.u.)
CTTTTTTTCCTTGCATAAGTTTTCATGCAGTTTCTTATTACGGAGTCACCTAGTGCAG | 9820 fluorescence intensity (a.u.)
CCATTACATCCTACTACTACTCTCCGCCGTCAAAGACGGCCGGAGTCACCTAGTGCAG | 8060 fluorescence intensity (a.u.)
TGGCTCGTCACATTTCCTCTATATGACCCCAAATGTCACACGGAGTCACCTAGTGCAG | 8120 fluorescence intensity (a.u.)
TGCCACCTGAGGTCAACAACCAAATCCATTTTCCTCCCATCGGAGTCACCTAGTGCAG | 8330 fluorescence intensity (a.u.)
CTTAAAATTTTTGTGTTTTTTCTGCGGTCTAATCAAATGACGGAGTCACCTAGTGCAG | 9040 fluorescence intensity (a.u.)
GATTGTGTTGTACATGCACACCGTATTCTGAACATTTTCTCGGAGTCACCTAGTGCAG | 8690 fluorescence intensity (a.u.)
GCCGCCGCTGCTTGCTTCACTCGCCTCAGATCCGCGCCGCCGGAGTCACCTAGTGCAG | 8220 fluorescence intensity (a.u.)
CACTTACCATGATAATTTGAACAGTTCACACGCGCCGAGACGGAGTCACCTAGTGCAG | 8190 fluorescence intensity (a.u.)
